Some of the results follow.

Sequences of proteins named here, by UniProt entry; tags and fusion partners are left off. A change or cut given only in a name is not applied to a line headed by its entry.
UniProt Q9H4G0, whole entry, looked up: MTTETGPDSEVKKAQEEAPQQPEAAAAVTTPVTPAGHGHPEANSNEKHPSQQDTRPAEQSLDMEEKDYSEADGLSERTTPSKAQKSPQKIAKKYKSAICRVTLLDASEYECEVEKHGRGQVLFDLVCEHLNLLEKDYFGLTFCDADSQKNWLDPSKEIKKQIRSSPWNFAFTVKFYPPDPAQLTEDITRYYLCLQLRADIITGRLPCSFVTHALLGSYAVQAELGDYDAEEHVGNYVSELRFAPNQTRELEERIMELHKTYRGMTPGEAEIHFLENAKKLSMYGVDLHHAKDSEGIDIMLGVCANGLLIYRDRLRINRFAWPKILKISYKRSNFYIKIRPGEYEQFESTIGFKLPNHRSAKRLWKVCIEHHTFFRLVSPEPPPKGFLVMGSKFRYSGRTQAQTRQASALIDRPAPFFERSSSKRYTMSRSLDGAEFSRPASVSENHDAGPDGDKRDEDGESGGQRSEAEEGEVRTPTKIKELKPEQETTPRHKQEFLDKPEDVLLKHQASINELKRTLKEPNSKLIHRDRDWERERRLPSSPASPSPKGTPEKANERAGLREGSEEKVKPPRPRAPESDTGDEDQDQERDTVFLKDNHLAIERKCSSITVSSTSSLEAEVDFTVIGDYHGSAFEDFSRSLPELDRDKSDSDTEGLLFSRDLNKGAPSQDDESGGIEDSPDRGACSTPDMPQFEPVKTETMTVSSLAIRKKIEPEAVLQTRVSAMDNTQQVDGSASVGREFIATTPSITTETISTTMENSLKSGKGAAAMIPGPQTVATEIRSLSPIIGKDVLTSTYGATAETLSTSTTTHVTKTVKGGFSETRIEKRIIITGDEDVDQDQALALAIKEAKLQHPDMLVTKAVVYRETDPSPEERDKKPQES
UniProt Q09472, whole entry, looked up: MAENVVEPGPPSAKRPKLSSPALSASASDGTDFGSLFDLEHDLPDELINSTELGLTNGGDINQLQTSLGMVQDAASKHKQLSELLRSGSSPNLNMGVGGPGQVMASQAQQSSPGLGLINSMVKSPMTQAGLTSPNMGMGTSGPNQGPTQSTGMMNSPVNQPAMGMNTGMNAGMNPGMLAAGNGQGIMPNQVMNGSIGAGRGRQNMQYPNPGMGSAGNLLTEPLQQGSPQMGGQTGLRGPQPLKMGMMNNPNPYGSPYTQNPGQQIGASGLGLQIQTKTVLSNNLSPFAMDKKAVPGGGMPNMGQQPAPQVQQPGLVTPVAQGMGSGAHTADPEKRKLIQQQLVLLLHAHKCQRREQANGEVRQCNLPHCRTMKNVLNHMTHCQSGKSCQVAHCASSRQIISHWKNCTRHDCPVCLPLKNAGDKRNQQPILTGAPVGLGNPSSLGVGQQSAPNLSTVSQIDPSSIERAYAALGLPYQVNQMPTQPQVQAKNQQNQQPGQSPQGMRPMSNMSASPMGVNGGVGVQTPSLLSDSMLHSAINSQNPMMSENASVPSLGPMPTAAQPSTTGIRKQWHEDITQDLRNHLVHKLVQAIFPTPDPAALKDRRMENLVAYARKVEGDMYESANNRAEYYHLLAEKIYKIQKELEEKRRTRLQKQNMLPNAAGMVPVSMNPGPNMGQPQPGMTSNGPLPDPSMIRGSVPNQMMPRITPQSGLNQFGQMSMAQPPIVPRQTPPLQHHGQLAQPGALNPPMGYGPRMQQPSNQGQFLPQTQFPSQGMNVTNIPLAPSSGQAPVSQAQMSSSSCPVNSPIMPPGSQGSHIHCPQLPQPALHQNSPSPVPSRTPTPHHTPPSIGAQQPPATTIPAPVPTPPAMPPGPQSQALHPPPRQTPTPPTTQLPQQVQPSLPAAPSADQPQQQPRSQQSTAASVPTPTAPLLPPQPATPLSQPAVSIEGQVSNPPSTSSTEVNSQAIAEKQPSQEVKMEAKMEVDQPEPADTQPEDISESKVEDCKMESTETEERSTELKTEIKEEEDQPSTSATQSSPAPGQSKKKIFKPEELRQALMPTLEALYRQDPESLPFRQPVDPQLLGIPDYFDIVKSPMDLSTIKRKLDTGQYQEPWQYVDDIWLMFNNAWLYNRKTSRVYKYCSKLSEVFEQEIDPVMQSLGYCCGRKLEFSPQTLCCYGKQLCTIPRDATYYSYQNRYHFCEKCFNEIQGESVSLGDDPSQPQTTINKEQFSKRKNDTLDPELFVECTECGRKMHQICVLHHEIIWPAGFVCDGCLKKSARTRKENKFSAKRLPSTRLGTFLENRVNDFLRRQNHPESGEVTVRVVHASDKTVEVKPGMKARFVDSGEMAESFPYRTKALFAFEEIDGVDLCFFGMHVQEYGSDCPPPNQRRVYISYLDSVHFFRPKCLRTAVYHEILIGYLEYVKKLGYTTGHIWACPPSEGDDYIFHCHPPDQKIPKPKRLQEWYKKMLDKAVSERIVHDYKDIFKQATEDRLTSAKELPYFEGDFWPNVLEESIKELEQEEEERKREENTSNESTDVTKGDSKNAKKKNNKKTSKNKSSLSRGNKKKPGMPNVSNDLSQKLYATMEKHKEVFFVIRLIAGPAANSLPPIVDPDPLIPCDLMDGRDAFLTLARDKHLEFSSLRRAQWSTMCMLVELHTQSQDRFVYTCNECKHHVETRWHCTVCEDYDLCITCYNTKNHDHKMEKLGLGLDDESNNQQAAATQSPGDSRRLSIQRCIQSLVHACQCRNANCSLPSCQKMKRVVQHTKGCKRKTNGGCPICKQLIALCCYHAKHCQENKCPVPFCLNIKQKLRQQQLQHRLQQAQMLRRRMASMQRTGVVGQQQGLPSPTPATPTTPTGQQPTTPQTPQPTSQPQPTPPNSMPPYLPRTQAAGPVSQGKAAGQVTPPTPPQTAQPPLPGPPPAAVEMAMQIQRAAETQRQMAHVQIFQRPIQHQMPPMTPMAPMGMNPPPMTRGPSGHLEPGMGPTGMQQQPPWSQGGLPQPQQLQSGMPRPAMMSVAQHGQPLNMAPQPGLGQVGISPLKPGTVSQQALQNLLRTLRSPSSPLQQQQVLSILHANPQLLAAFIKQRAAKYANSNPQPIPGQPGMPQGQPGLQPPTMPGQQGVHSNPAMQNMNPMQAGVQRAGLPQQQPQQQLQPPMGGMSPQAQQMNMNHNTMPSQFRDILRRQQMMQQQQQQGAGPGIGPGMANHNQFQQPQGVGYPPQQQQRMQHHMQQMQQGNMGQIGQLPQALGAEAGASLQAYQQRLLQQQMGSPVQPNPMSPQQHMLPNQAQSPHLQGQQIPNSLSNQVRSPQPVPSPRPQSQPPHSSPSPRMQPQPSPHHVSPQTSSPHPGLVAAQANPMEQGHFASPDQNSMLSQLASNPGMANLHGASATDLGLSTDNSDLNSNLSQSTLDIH
UniProt O60841: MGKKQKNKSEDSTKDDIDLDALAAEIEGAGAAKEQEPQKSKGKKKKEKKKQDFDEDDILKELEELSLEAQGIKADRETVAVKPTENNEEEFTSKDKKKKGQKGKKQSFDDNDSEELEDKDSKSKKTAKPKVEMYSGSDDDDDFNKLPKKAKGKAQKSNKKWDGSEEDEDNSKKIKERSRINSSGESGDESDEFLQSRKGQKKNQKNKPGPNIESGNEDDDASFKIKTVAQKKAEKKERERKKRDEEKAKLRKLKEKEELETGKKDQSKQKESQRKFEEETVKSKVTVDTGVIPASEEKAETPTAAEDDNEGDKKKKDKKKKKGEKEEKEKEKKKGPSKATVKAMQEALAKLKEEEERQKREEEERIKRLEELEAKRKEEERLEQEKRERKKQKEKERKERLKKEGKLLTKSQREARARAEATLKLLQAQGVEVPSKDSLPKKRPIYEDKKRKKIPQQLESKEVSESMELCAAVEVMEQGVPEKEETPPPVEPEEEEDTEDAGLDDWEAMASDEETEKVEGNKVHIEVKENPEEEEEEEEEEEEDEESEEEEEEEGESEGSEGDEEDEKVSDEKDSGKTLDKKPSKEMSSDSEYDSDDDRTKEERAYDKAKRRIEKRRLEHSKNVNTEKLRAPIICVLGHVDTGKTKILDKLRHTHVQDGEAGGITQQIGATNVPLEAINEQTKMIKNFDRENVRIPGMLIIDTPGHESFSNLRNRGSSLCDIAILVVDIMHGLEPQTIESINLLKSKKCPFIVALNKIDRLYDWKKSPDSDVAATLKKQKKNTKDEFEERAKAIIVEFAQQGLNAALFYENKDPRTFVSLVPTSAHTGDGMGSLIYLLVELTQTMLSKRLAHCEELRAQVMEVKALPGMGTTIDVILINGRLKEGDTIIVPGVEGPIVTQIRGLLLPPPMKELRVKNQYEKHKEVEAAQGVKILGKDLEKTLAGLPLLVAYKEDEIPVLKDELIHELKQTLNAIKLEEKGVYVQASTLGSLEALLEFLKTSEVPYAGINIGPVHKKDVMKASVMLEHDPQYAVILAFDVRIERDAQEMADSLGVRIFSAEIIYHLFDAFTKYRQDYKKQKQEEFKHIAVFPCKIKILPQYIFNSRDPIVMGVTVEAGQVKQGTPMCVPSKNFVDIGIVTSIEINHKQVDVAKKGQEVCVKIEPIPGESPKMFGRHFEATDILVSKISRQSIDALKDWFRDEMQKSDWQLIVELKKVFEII
UniProt O15371, whole entry, looked up: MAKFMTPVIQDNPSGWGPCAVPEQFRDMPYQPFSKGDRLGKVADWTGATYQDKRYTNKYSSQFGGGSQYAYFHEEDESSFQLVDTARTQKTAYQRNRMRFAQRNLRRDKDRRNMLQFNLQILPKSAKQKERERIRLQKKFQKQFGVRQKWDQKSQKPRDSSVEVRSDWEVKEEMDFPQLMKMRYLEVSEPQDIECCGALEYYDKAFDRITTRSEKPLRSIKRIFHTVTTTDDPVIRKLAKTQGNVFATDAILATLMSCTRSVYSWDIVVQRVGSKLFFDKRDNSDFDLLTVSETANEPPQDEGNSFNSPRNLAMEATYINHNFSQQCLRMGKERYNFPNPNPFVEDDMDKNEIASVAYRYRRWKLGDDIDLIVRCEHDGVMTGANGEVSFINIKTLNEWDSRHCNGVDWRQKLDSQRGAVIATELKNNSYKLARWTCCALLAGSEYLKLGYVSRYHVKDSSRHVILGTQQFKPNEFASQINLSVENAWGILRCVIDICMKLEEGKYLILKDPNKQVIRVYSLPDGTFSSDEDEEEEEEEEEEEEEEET
UniProt Q9UBC2: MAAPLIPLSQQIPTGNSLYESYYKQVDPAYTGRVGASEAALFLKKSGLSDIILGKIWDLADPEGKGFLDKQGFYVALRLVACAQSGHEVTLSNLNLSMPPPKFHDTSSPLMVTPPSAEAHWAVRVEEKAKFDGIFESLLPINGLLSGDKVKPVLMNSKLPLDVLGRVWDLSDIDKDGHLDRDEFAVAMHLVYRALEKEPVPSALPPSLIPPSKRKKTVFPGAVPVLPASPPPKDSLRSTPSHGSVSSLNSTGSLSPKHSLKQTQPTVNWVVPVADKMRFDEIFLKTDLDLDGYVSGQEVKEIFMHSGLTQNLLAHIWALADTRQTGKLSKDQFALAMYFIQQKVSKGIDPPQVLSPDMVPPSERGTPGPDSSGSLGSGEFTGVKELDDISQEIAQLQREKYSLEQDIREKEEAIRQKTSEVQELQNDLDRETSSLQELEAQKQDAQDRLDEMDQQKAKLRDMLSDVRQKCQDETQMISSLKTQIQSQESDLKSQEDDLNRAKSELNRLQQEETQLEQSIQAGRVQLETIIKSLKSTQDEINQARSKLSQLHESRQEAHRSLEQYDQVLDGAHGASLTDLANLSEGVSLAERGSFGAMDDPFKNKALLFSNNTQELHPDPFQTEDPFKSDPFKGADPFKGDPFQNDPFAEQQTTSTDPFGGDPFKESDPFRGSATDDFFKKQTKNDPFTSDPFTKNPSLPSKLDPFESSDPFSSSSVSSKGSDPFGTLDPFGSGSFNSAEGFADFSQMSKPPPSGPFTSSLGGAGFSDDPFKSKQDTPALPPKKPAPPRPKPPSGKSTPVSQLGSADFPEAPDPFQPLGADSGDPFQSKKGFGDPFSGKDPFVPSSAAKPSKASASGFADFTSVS
UniProt O75356: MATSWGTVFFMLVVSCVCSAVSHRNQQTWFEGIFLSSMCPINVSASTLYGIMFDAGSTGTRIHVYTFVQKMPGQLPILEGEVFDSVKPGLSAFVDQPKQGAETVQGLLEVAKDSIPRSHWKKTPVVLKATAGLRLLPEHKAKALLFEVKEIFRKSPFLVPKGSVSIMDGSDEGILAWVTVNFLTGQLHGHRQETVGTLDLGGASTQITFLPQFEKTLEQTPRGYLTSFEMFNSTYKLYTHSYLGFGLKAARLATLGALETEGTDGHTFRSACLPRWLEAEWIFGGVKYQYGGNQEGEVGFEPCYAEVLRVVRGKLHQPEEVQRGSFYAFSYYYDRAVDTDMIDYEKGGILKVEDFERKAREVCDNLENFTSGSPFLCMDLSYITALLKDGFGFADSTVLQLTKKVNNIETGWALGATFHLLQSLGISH
UniProt Q5J8M3, whole entry, looked up: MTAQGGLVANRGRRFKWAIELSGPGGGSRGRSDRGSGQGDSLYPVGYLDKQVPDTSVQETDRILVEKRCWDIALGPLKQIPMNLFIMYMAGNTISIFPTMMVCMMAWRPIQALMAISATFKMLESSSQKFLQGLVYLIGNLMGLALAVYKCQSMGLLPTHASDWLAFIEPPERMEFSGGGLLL

Compound in the first assay: CCn1c(C(=O)N(C2CC2)C2CC2)cc2c3c(ncn3C)c(Nc3cc(C)n(C)n3)nc21
The assay can be described thus: log2 fold change, soluble protein after heating vs DMSO (PISA); higher = thermal stabilisation; K562 lysate, 10 uM; active = over 0.2 and 3.5 SD of the protein, either way, in both replicates (recomputed). In outline:
(§1)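 Log-two fold change in thermal stability relative to solvent controls is reported from duplicates. For each sample, crude K562 extract from dounce-homogenised pellets in PBS pH 7.4 with 1 mM MgCl2, at 1 mg/mL protein, was treated with 10 μM compound for 30 min. Aliquots heated for 3 min across 48°C-58°C were pooled, brought to 0.5% NP-40 at 4°C and cleared at 21,000xg for 90 min. The supernatant was quantified by TMTpro 16plex LC-MS/MS with channel sums equalised.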
With EPB41L1 (UniProt Q9H4G0), the log2 fold change was inactive: -0.161.
The same measure, in the same setting: next, ELAC2 (UniProt Q9BQ52): inactive: -0.011.
Same read-out and setting: next, EIF4B (UniProt P23588): inactive: -0.025.
The same measure, in the same setting: the figure for EIF3F (UniProt O00303) is inactive: 0.018; for EIF2D (UniProt P41214) it is inactive: 0.001; for EMC2 (UniProt Q15006) it is inactive: 0.008.
For the target EP300 (UniProt Q09472), the log2 fold change was inactive: -0.009.
Still for that read-out and setting: next, EIF5B (UniProt O60841): inactive: -0.014.
The same measure, in the same setting: next, ERCC2 (UniProt P18074): inactive: 0; EMC10 (UniProt Q5UCC4): inactive: 0.003.
For the target EML2 isoform 3 (UniProt O95834), the log2 fold change is inactive: 0.006.
Same read-out and setting: next, EMC8 (UniProt O43402): inactive: 0.018.
Same read-out and setting: next, EIF3D (UniProt O15371): inactive: -0.002.
As for ENGASE (UniProt Q8NFI3), the log2 fold change was inactive: -0.031.
Still for that read-out and setting: the figure for EPS15L1 isoform 2 (UniProt Q9UBC2) is inactive: 0.002.
Still for that read-out and setting: next, EP400P1 isoform 6 (UniProt Q6ZTU2): inactive: 0.013; ENTPD5 (UniProt O75356): inactive: 0.082; ELP6 (UniProt Q0PNE2): inactive: -0.013.
Same read-out and setting: the figure for EIF2B5 (UniProt Q13144) is inactive: 0.021; for EIF3G (UniProt O75821) it is inactive: -0.019; for ELOC (UniProt Q15369) it is inactive: 0.
In the case of EML3 (UniProt Q32P44), the log2 fold change was inactive: -0.003.
On the same count and under the same terms, next, ELOA (UniProt Q14241): inactive: 0.002; EIF2AK4 (UniProt Q9P2K8): inactive: -0.009; EMC3 (UniProt Q9P0I2): inactive: -0.041.
Regarding EMP3 (UniProt P54852), the log2 fold change was inactive: -0.112.
On to EMC4 (UniProt Q5J8M3), for which the log2 fold change is inactive: 0.029.
On the same count and under the same terms, the figure for EPB41L3 (UniProt Q9Y2J2) is inactive: 0.165; for EIF4EBP2 (UniProt Q13542) it is inactive: 0.122; for ERCC6L (UniProt Q2NKX8) it is inactive: 0.018.
The same measure, in the same setting: next, EIF4E isoform 2 (UniProt P06730): inactive: 0.061; EMC6 (UniProt Q9BV81): inactive: -0.119.
Same read-out and setting: next, EIF4A3 (UniProt P38919): inactive: 0.026.
EIF3E (UniProt P60228): the log2 fold change is inactive: 0.052.
On the same count and under the same terms, the figure for EPHX2 (UniProt P34913) is inactive: -0.004.

Compound in the next assay: CCn1cc(-c2ccnc3[nH]c(-c4cccc(CN(C)C)c4)cc23)c(-c2ccc(NC(=O)N(C)C)cc2)n1
The description is as above. In a few lines: as §1
As for EPB41L1 (UniProt Q9H4G0), the log2 fold change is inactive: 0.014.
On the same count and under the same terms, next, ELAC2 (UniProt Q9BQ52): inactive: -0.132; EIF4B (UniProt P23588): inactive: -0.07.
The same measure, in the same setting: next, EIF3F (UniProt O00303): inactive: 0.188; EIF2D (UniProt P41214): inactive: -0.02; EMC2 (UniProt Q15006): inactive: -0.036.
Take EP300 (UniProt Q09472): the log2 fold change was inactive: -0.151.
Turning to EIF5B (UniProt O60841), the log2 fold change was inactive: 0.013.
Still for that read-out and setting: the figure for ERCC2 (UniProt P18074) is inactive: 0.06.
Consider EMC10 (UniProt Q5UCC4), for which the log2 fold change is inactive: -0.241.
The same measure, in the same setting: next, EML2 isoform 3 (UniProt O95834): inactive: 0.128; EMC8 (UniProt O43402): inactive: 0.19; EIF3D (UniProt O15371): inactive: -0.043.
The same measure, in the same setting: the figure for ENGASE (UniProt Q8NFI3) is inactive: 0.028.
Still for that read-out and setting: next, EPS15L1 isoform 2 (UniProt Q9UBC2): inactive: 0.035.
Consider EP400P1 isoform 6 (UniProt Q6ZTU2), for which the log2 fold change is inactive: -0.032.
On to ENTPD5 (UniProt O75356), for which the log2 fold change is inactive: -0.033.
Turning to ELP6 (UniProt Q0PNE2), the log2 fold change was inactive: -0.177.
Still for that read-out and setting: next, EIF2B5 (UniProt Q13144): inactive: -0.065; EIF3G (UniProt O75821): inactive: -0.022; ELOC (UniProt Q15369): inactive: -0.041.
Same read-out and setting: the figure for EML3 (UniProt Q32P44) is inactive: -0.016.
On the same count and under the same terms, next, ELOA (UniProt Q14241): inactive: -0.036; EIF2AK4 (UniProt Q9P2K8): inactive: -0.003; EMC3 (UniProt Q9P0I2): inactive: -0.024.
Consider EMP3 (UniProt P54852), for which the log2 fold change is active: -0.967.
Take EMC4 (UniProt Q5J8M3): the log2 fold change was inactive: -0.004.
The same measure, in the same setting: next, EPB41L3 (UniProt Q9Y2J2): inactive: 0.035; EIF4EBP2 (UniProt Q13542): inactive: -0.036.
The same measure, in the same setting: the figure for ERCC6L (UniProt Q2NKX8) is inactive: 0.051.
Still for that read-out and setting: next, EIF4E isoform 2 (UniProt P06730): inactive: 0.007; EMC6 (UniProt Q9BV81): inactive: 0.012.
In the case of EIF4A3 (UniProt P38919), the log2 fold change is inactive: -0.165.
Still for that read-out and setting: the figure for EIF3E (UniProt P60228) is inactive: -0.066; for EPHX2 (UniProt P34913) it is inactive: -0.044.

The values above are taken from the supplement of paper PMC10849652.
